# Data as given in the supplement of paper PMC8728848.
# The other results are listed elsewhere or left out.
# B1: PX14343I-pdi-501-30-501 (Parabacteroides distasonis) (protein)
# chain: SDQYSTETFWKTKEHASAGIMGCYNALKLWRSLHTMEFDMLTANAMPYNEANGTQAIGKGEHLSTTALIGSLWKNCYVGIGRTNTFIANVGGVDMDESEKAKMVGEAKFLRAFYYLSLVDKFGGVPLIIDAPNADEQAELPRNSKEEVVNQIVKDLEEAAAVLPDTYASSDLGRATKGAALALKARTLLYNSRWAEAAQAAKQVMESGVYQLFNDYRHFFSEDNKYNCEVIFDIEAKLPEYPTDYDQNIWRLNRPAPLKELVDTYLCVDGKTIEESPLYDPTRPYENRDPRLLKSIVCIGYPYLGKTITKEDVATTGFGVKKYTSYEDDVTIPLVERSAFNFILIRYAEVLLTYAEAQNEASGPDQSVYDAINQLRRRPDINMPEVPKGLTKDQMREVIRRERRIELTFEGLYYSDILRWKTAEKENNGMMHNYEGIEVVKRSFNPKRDYLWPIPYNQTVLNPNLEQNPNWD
# Experiments:
# Assay in all cases: glycan array binding signal (z-score within array); higher = stronger binding
# Conditions in all cases: glycan notation: IUPAC condensed, linker removed
# [1] = biological target: GlcNAc(b1-3)Gal(b1-4)GlcNAc(b1-3)Gal(b1-4)GlcNAc(b1-2)Man(a1-3)[GlcNAc(b1-3)Gal(b1-4)GlcNAc(b1-3)Gal(b1-4)GlcNAc(b1-2)Man(a1-6)]Man(b1-4)GlcNAc(b1-4)[Fuc(a1-6)]GlcNAc
# Procedure, shortened: (§1)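 The binding signal is a Z-score computed within each array. Data were drawn from 3228 arrays in the Consortium for Functional Glycomics database, restricted to those with a known protein sequence. Scores were averaged over arrays of the same protein sequence at different concentrations or buffers, and over linkers, and negative values can be taken as non-binding.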
# [2] = biological target: GlcNAc(b1-3)Gal(b1-4)GlcNAc(b1-3)Gal(b1-4)GlcNAc(b1-2)[GlcNAc(b1-3)Gal(b1-4)GlcNAc(b1-3)Gal(b1-4)GlcNAc(b1-6)]Man(a1-6)[GlcNAc(b1-3)Gal(b1-4)GlcNAc(b1-3)Gal(b1-4)GlcNAc(b1-2)Man(a1-3)]Man(b1-4)GlcNAc(b1-4)[Fuc(a1-6)]GlcNAc
# Procedure, shortened: as §1
# [3] = biological target: GlcNAc(b1-3)Gal(b1-4)GlcNAc(b1-3)Gal(b1-4)GlcNAc(b1-3)Gal(b1-4)GlcNAc(b1-2)Man(a1-3)[GlcNAc(b1-3)Gal(b1-4)GlcNAc(b1-3)Gal(b1-4)GlcNAc(b1-3)Gal(b1-4)GlcNAc(b1-2)Man(a1-6)]Man(b1-4)GlcNAc(b1-4)GlcNAc
# Procedure, shortened: as §1
# [4] = biological target: GlcNAc(b1-3)Gal(b1-4)GlcNAc(b1-3)Gal(b1-4)GlcNAc(b1-3)Gal(b1-4)GlcNAc(b1-2)Man(a1-3)[GlcNAc(b1-3)Gal(b1-4)GlcNAc(b1-3)Gal(b1-4)GlcNAc(b1-3)Gal(b1-4)GlcNAc(b1-2)Man(a1-6)]Man(b1-4)GlcNAc(b1-4)[Fuc(a1-6)]GlcNAc
# Procedure, shortened: as §1
# [5] = biological target: GlcNAc(b1-3)Gal(b1-4)GlcNAc(b1-3)Gal(b1-4)GlcNAc(b1-3)Gal(b1-4)GlcNAc(b1-2)[GlcNAc(b1-3)Gal(b1-4)GlcNAc(b1-3)Gal(b1-4)GlcNAc(b1-3)Gal(b1-4)GlcNAc(b1-6)]Man(a1-6)[GlcNAc(b1-3)Gal(b1-4)GlcNAc(b1-3)Gal(b1-4)GlcNAc(b1-3)Gal(b1-4)GlcNAc(b1-2)Man(a1-3)]Man(b1-4)GlcNAc(b1-4)[Fuc(a1-6)]GlcNAc
# Procedure, shortened: as §1
# [6] = biological target: GlcNAc(b1-3)Gal(b1-4)GlcNAc(b1-3)Gal(b1-4)GlcNAc(b1-3)Gal(b1-4)GlcNAc(b1-3)Gal(b1-4)GlcNAc(b1-2)Man(a1-3)[GlcNAc(b1-3)Gal(b1-4)GlcNAc(b1-3)Gal(b1-4)GlcNAc(b1-3)Gal(b1-4)GlcNAc(b1-3)Gal(b1-4)GlcNAc(b1-2)Man(a1-6)]Man(b1-4)GlcNAc(b1-4)GlcNAc
# Procedure, shortened: as §1
# [7] = biological target: GlcNAc(b1-3)Gal(b1-4)GlcNAc(b1-3)Gal(b1-4)GlcNAc(b1-3)Gal(b1-4)GlcNAc(b1-3)Gal(b1-4)GlcNAc(b1-2)Man(a1-3)[GlcNAc(b1-3)Gal(b1-4)GlcNAc(b1-3)Gal(b1-4)GlcNAc(b1-3)Gal(b1-4)GlcNAc(b1-3)Gal(b1-4)GlcNAc(b1-2)Man(a1-6)]Man(b1-4)GlcNAc(b1-4)[Fuc(a1-6)]GlcNAc
# Procedure, shortened: as §1
# [8] = biological target: GlcNAc(b1-3)Gal(b1-4)GlcNAc(b1-3)Gal(b1-4)GlcNAc(b1-3)Gal(b1-4)GlcNAc(b1-3)Gal(b1-4)GlcNAc(b1-2)[GlcNAc(b1-3)Gal(b1-4)GlcNAc(b1-3)Gal(b1-4)GlcNAc(b1-3)Gal(b1-4)GlcNAc(b1-3)Gal(b1-4)GlcNAc(b1-6)]Man(a1-6)[GlcNAc(b1-3)Gal(b1-4)GlcNAc(b1-3)Gal(b1-4)GlcNAc(b1-3)Gal(b1-4)GlcNAc(b1-3)Gal(b1-4)GlcNAc(b1-2)Man(a1-3)]Man(b1-4)GlcNAc(b1-4)[Fuc(a1-6)]GlcNAc
# Procedure, shortened: as §1
# [9] = biological target: GlcNAc(b1-3)Gal(b1-4)GlcNAc(b1-3)Gal(b1-4)GlcNAc(b1-3)GalNAc
# Procedure, shortened: as §1
# [10] = biological target: GlcNAc(b1-3)Gal(b1-4)GlcNAc(b1-3)GalNAc
# Procedure, shortened: as §1
# [11] = biological target: GlcNAc(b1-3)Gal(b1-4)GlcNAc(b1-3)[GlcNAc(b1-3)Gal(b1-4)GlcNAc(b1-3)]GalNAc
# Procedure, shortened: as §1
# [12] = biological target: GlcNAc(b1-3)Gal(b1-4)GlcNAc(b1-6)[Gal(b1-3)]GalNAc
# Procedure, shortened: as §1
# [13] = biological target: GlcNAc(b1-3)Gal(b1-4)GlcNAc(b1-6)[GlcNAc(b1-3)Gal(b1-3)]GalNAc
# Procedure, shortened: as §1
# [14] = biological target: GlcNAc(b1-3)Gal(b1-4)GlcNAc(b1-6)[GlcNAc(b1-3)]Gal(b1-4)GlcNAc
# Procedure, shortened: as §1
# [15] = biological target: GlcNAc(b1-3)GalNAc
# Procedure, shortened: as §1
# [16] = biological target: GlcNAc(b1-3)Man
# Procedure, shortened: as §1
# [17] = biological target: GlcNAc(b1-3)[GlcNAc(b1-4)][GlcNAc(b1-6)]GlcNAc
# Procedure, shortened: as §1
# [18] = biological target: GlcNAc(b1-3)[GlcNAc(b1-6)]Gal(b1-4)GlcNAc
# Procedure, shortened: as §1
# [19] = biological target: GlcNAc(b1-3)[GlcNAc(b1-6)]GalNAc
# Procedure, shortened: as §1
# [20] = biological target: GlcNAc(b1-4)Gal(b1-4)GlcNAc
# Procedure, shortened: as §1
# [21] = biological target: GlcNAc(b1-4)GlcNAc
# Procedure, shortened: as §1
# [22] = biological target: GlcNAc(b1-4)GlcNAc(b1-4)GlcNAc
# Procedure, shortened: as §1
# [23] = biological target: GlcNAc(b1-4)GlcNAc(b1-4)GlcNAc(b1-4)GlcNAc(b1-4)GlcNAc
# Procedure, shortened: as §1
# [24] = biological target: GlcNAc(b1-4)GlcNAc(b1-4)GlcNAc(b1-4)GlcNAc(b1-4)GlcNAc(b1-4)GlcNAc
# Procedure, shortened: as §1
# [25] = biological target: GlcNAc(b1-4)[GlcNAc(b1-6)]GalNAc
# Procedure, shortened: as §1
# [26] = biological target: GlcNAc(b1-6)Gal(b1-4)GlcNAc
# Procedure, shortened: as §1
# [27] = biological target: GlcNAc(b1-6)GalNAc
# Procedure, shortened: as §1
# [28] = biological target: GlcNAc6S(b1-3)Gal(b1-4)GlcNAc
# Procedure, shortened: as §1
# [29] = biological target: Kdn(a2-3)Gal(b1-3)GalNAc
# Procedure, shortened: as §1
# [30] = biological target: Kdn(a2-3)Gal(b1-3)GlcNAc
# Procedure, shortened: as §1
# [31] = biological target: Kdn(a2-3)Gal(b1-4)Glc
# Procedure, shortened: as §1
# [32] = biological target: Kdn(a2-3)Gal(b1-4)GlcNAc
# Procedure, shortened: as §1
# [33] = biological target: Kdn(a2-3)Gal(b1-4)[Fuc(a1-3)]GlcNAc
# Procedure, shortened: as §1
# [34] = biological target: Kdn(a2-6)Gal(b1-4)GlcNAc
# Procedure, shortened: as §1
# [35] = biological target: Man(a1-2)Man(a1-2)Man(a1-3)Man
# Procedure, shortened: as §1
# [36] = biological target: Man(a1-2)Man(a1-2)Man(a1-6)[Man(a1-3)]Man
# Procedure, shortened: as §1
# [37] = biological target: Man(a1-2)Man(a1-3)Man
# Procedure, shortened: as §1
# [38] = biological target: Man(a1-2)Man(a1-3)[Man(a1-2)Man(a1-6)]Man
# Procedure, shortened: as §1
binder,measurement,setting,value
B1,glycan array binding signal (z-score),[1],1.31
same,glycan array binding signal (z-score),[2],1.77
same,glycan array binding signal (z-score),[3],0.959
same,glycan array binding signal (z-score),[4],0.231
same,glycan array binding signal (z-score),[5],0.975
same,glycan array binding signal (z-score),[6],0.48
same,glycan array binding signal (z-score),[7],1.23
same,glycan array binding signal (z-score),[8],0.812
same,glycan array binding signal (z-score),[9],-0.294
same,glycan array binding signal (z-score),[10],-0.574
same,glycan array binding signal (z-score),[11],-0.357
same,glycan array binding signal (z-score),[12],-0.576
same,glycan array binding signal (z-score),[13],0.015
same,glycan array binding signal (z-score),[14],-0.401
same,glycan array binding signal (z-score),[15],-0.701
same,glycan array binding signal (z-score),[16],-0.136
same,glycan array binding signal (z-score),[17],0.101
same,glycan array binding signal (z-score),[18],-0.551
same,glycan array binding signal (z-score),[19],0.395
same,glycan array binding signal (z-score),[20],-0.114
same,glycan array binding signal (z-score),[21],-0.757
same,glycan array binding signal (z-score),[22],-0.204
same,glycan array binding signal (z-score),[23],-0.163
same,glycan array binding signal (z-score),[24],0.162
same,glycan array binding signal (z-score),[25],1.25
same,glycan array binding signal (z-score),[26],-0.84
same,glycan array binding signal (z-score),[27],-0.084
same,glycan array binding signal (z-score),[28],-0.071
same,glycan array binding signal (z-score),[29],0.874
same,glycan array binding signal (z-score),[30],0.694
same,glycan array binding signal (z-score),[31],-0.237
same,glycan array binding signal (z-score),[32],-0.302
same,glycan array binding signal (z-score),[33],-0.402
same,glycan array binding signal (z-score),[34],0.035
same,glycan array binding signal (z-score),[35],-0.22
same,glycan array binding signal (z-score),[36],0.234
same,glycan array binding signal (z-score),[37],0.611
same,glycan array binding signal (z-score),[38],-0.805

# Some of the entries so far, bar-delimited.
binder | measurement | setting | value
B1 | glycan array binding signal (z-score) | [28] | -0.071
same | glycan array binding signal (z-score) | [29] | 0.874
same | glycan array binding signal (z-score) | [30] | 0.694
same | glycan array binding signal (z-score) | [31] | -0.237
same | glycan array binding signal (z-score) | [32] | -0.302
same | glycan array binding signal (z-score) | [33] | -0.402
same | glycan array binding signal (z-score) | [34] | 0.035
same | glycan array binding signal (z-score) | [35] | -0.22
same | glycan array binding signal (z-score) | [36] | 0.234
